± gives the standard deviation of the averaged measurements. Values are relative to the signal before dosing, not to a vehicle control; the signal also falls without drug.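 Fibroblast labels denote human fibroblasts, mainly primary ones from uterus (C12385, HUF), lung (H6013), bone (Hs27A), adrenal (HADF) and skin (WS1), plus mammary HMF and breast cancer-associated Hs343T. Cancer cells are basal-like or mesenchymal-like triple-negative breast cancer lines. A hit is a response shift exceeding 3x replicate standard deviation. The tissue of the other fibroblasts is not given here.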
System: MDAMB468
Assay: relative JC-1 red fluorescence (viability) vs pre-drug, coculture with fibroblast (fraction); higher = more viable cancer cells
Method: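 JC-1 labelled TNBC cells cocultured 1:1 (1,500 cells each) with CellTrace Violet stained primary or stromal fibroblasts in 384-well plates in FluoroBrite medium, treated with one of 42 anticancer drugs at 0.1, 1, 10 or 100 uM. JC-1 red fluorescence (mitochondrial integrity in cancer cells only) was read by plate reader every 8 h for 72 h. Values are normalised to each well's pre-drug value. The stock of one drug was tenfold lower, so its dose labels may be too high.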

COc1cc([C@@H]2c3cc4c(cc3[C@@H](O[C@@H]3O[C@@H]5CO[C@@H](c6cccs6)O[C@H]5[C@H](O)[C@H]3O)[C@H]3COC(=O)[C@H]23)OCO4)cc(OC)c1O [Teniposide]
relative JC-1 red fluorescence
Settings | 8 h | 16 h | 24 h | 32 h | 40 h | 48 h | 56 h | 64 h | 72 h
0.1 µM, coculture fibroblast: C12385 | 0.84337 ± 0.00015 | 0.847 ± 0.032 | 0.826 ± 0.074 | 0.778 ± 0.096 | 0.74 ± 0.1 | 0.736 ± 0.13 | 0.703 ± 0.15 | 0.694 ± 0.16 | 0.69 ± 0.17
0.1 µM, coculture fibroblast: H6013 | 0.857 ± 0.012 | 0.846 ± 0.026 | 0.8 ± 0.033 | 0.783 ± 0.016 | 0.738 ± 0.037 | 0.748 ± 0.044 | 0.714 ± 0.05 | 0.693 ± 0.07 | 0.651 ± 0.069
0.1 µM, coculture fibroblast: H6019 | 0.83 ± 0.03 | 0.802 ± 0.014 | 0.7726 ± 0.0054 | 0.727 ± 0.0006 | 0.6965 ± 0.0066 | 0.6916 ± 0.0033 | 0.641 ± 0.011 | 0.618 ± 0.013 | 0.603 ± 0.015
0.1 µM, coculture fibroblast: H6076 | 0.911 ± 0.015 | 0.9248 ± 0.0038 | 0.8675 ± 0.006 | 0.863 ± 0.011 | 0.7954 ± 0.00095 | 0.7886 ± 0.0037 | 0.759 ± 0.019 | 0.744 ± 0.015 | 0.802 ± 0.034
0.1 µM, coculture fibroblast: H6231 | 0.813 ± 0.051 | 0.9049 ± 0.0022 | 0.8454 ± 0.00092 | 0.844 ± 0.027 | 0.784 ± 0.02 | 0.755 ± 0.016 | 0.697 ± 0.026 | 0.67 ± 0.022 | 0.659 ± 0.034
0.1 µM, coculture fibroblast: HADF | 0.847 ± 0.022 | 0.843 ± 0.033 | 0.781 ± 0.03 | 0.767 ± 0.036 | 0.722 ± 0.033 | 0.719 ± 0.03 | 0.682 ± 0.036 | 0.67 ± 0.044 | 0.632 ± 0.041
0.1 µM, coculture fibroblast: HCFa | 0.85707 ± 0.00015 | 0.835 ± 0.009 | 0.787 ± 0.0096 | 0.76 ± 0.021 | 0.701 ± 0.017 | 0.688 ± 0.018 | 0.637 ± 0.022 | 0.604 ± 0.017 | 0.552 ± 0.011
0.1 µM, coculture fibroblast: HCPF | 0.8375 ± 0.0038 | 0.908 ± 0.015 | 0.83 ± 0.026 | 0.828 ± 0.0093 | 0.76 ± 0.015 | 0.7363 ± 0.0067 | 0.6763 ± 0.0036 | 0.666 ± 0.01 | 0.654 ± 0.022
0.1 µM, coculture fibroblast: HHSteC | 0.873 ± 0.023 | 0.853 ± 0.02 | 0.799 ± 0.041 | 0.764 ± 0.045 | 0.722 ± 0.027 | 0.711 ± 0.025 | 0.654 ± 0.029 | 0.633 ± 0.025 | 0.582 ± 0.026
0.1 µM, coculture fibroblast: HMF | 0.821 ± 0.017 | 0.9132 ± 0.0075 | 0.866 ± 0.021 | 0.842 ± 0.015 | 0.763 ± 0.026 | 0.736 ± 0.041 | 0.703 ± 0.036 | 0.69 ± 0.036 | 0.68 ± 0.022
0.1 µM, coculture fibroblast: HPFa | 0.94 ± 0.05 | 0.909 ± 0.019 | 0.892 ± 0.042 | 0.827 ± 0.036 | 0.807 ± 0.029 | 0.801 ± 0.024 | 0.755 ± 0.036 | 0.731 ± 0.037 | 0.649 ± 0.03
0.1 µM, coculture fibroblast: HUF | 0.857 ± 0.011 | 0.8361 ± 0.0018 | 0.792 ± 0.015 | 0.734 ± 0.024 | 0.701 ± 0.033 | 0.688 ± 0.036 | 0.655 ± 0.043 | 0.647 ± 0.03 | 0.637 ± 0.038
0.1 µM, coculture fibroblast: Hs5 | 0.955 ± 0.023 | 0.93 ± 0.032 | 0.909 ± 0.021 | 0.8953 ± 0.0052 | 0.823 ± 0.0098 | 0.7992 ± 0.0028 | 0.7711 ± 0.0015 | 0.735 ± 0.013 | 0.771 ± 0.022
0.1 µM, coculture fibroblast: Hs27A | 0.848 ± 0.0098 | 0.847 ± 0.015 | 0.7854 ± 0.0078 | 0.76993 ± 0.00025 | 0.715 ± 0.0097 | 0.721 ± 0.021 | 0.693 ± 0.015 | 0.683 ± 0.023 | 0.64 ± 0.025
0.1 µM, coculture fibroblast: Hs343T | 0.8552 ± 0.0069 | 0.898 ± 0.069 | 0.841 ± 0.091 | 0.832 ± 0.065 | 0.762 ± 0.065 | 0.759 ± 0.076 | 0.721 ± 0.054 | 0.712 ± 0.04 | 0.697 ± 0.034
0.1 µM, coculture fibroblast: WS1 | 0.8289 ± 0.0034 | 0.784 ± 0.018 | 0.749 ± 0.046 | 0.686 ± 0.057 | 0.648 ± 0.05 | 0.627 ± 0.049 | 0.61 ± 0.054 | 0.595 ± 0.045 | 0.594 ± 0.056
1 µM, coculture fibroblast: C12385 | 0.852 ± 0.015 | 0.828 ± 0.041 | 0.787 ± 0.032 | 0.731 ± 0.039 | 0.689 ± 0.044 | 0.691 ± 0.076 | 0.645 ± 0.079 | 0.632 ± 0.11 | 0.633 ± 0.12
1 µM, coculture fibroblast: H6013 | 0.878 ± 0.018 | 0.891 ± 0.024 | 0.853 ± 0.046 | 0.84 ± 0.058 | 0.833 ± 0.085 | 0.841 ± 0.097 | 0.81 ± 0.11 | 0.801 ± 0.11 | 0.739 ± 0.11
1 µM, coculture fibroblast: H6019 | 0.84 ± 0.011 | 0.813 ± 0.017 | 0.788 ± 0.043 | 0.74 ± 0.083 | 0.697 ± 0.11 | 0.687 ± 0.12 | 0.636 ± 0.12 | 0.605 ± 0.12 | 0.589 ± 0.12
1 µM, coculture fibroblast: H6076 | 0.9069 ± 0.0019 | 0.8998 ± 0.0047 | 0.8459 ± 0.0079 | 0.826 ± 0.018 | 0.741 ± 0.023 | 0.73 ± 0.024 | 0.706 ± 0.011 | 0.695 ± 0.0091 | 0.718 ± 0.012
1 µM, coculture fibroblast: H6231 | 0.837 ± 0.023 | 0.876 ± 0.052 | 0.82 ± 0.085 | 0.827 ± 0.098 | 0.755 ± 0.095 | 0.75 ± 0.092 | 0.715 ± 0.097 | 0.703 ± 0.1 | 0.701 ± 0.12
1 µM, coculture fibroblast: HADF | 0.895 ± 0.01 | 0.881 ± 0.017 | 0.812 ± 0.028 | 0.788 ± 0.025 | 0.753 ± 0.018 | 0.744 ± 0.011 | 0.707 ± 0.014 | 0.6983 ± 0.0048 | 0.644 ± 0.013
1 µM, coculture fibroblast: HCFa | 0.8806 ± 0.0031 | 0.862 ± 0.029 | 0.806 ± 0.038 | 0.773 ± 0.04 | 0.718 ± 0.043 | 0.706 ± 0.062 | 0.668 ± 0.081 | 0.639 ± 0.1 | 0.597 ± 0.11
1 µM, coculture fibroblast: HCPF | 0.837 ± 0.016 | 0.91 ± 0.028 | 0.835 ± 0.019 | 0.82244 ± 0.00013 | 0.7538 ± 0.0039 | 0.724 ± 0.019 | 0.675 ± 0.046 | 0.664 ± 0.056 | 0.649 ± 0.069
1 µM, coculture fibroblast: HHSteC | 0.8964 ± 0.0055 | 0.89982 ± 0.00035 | 0.849 ± 0.022 | 0.809 ± 0.026 | 0.805 ± 0.029 | 0.8 ± 0.024 | 0.745 ± 0.025 | 0.722 ± 0.032 | 0.664 ± 0.036
1 µM, coculture fibroblast: HMF | 0.8524 ± 0.0031 | 0.904 ± 0.013 | 0.8509 ± 0.0066 | 0.836 ± 0.013 | 0.763 ± 0.021 | 0.752 ± 0.029 | 0.693 ± 0.034 | 0.668 ± 0.035 | 0.667 ± 0.051
1 µM, coculture fibroblast: HPFa | 0.919 ± 0.027 | 0.9028 ± 0.0014 | 0.8912 ± 0.0016 | 0.837 ± 0.014 | 0.821 ± 0.033 | 0.817 ± 0.04 | 0.765 ± 0.037 | 0.754 ± 0.026 | 0.681 ± 0.016
1 µM, coculture fibroblast: HUF | 0.9 ± 0.017 | 0.834 ± 0.019 | 0.789 ± 0.017 | 0.716 ± 0.018 | 0.666 ± 0.035 | 0.64 ± 0.04 | 0.588 ± 0.036 | 0.566 ± 0.043 | 0.542 ± 0.048
1 µM, coculture fibroblast: Hs5 | 0.9791 ± 0.0067 | 0.9416 ± 0.0029 | 0.914 ± 0.019 | 0.88 ± 0.019 | 0.802 ± 0.018 | 0.778 ± 0.031 | 0.747 ± 0.043 | 0.724 ± 0.062 | 0.738 ± 0.066
1 µM, coculture fibroblast: Hs27A | 0.8436 ± 0.0019 | 0.894 ± 0.012 | 0.799 ± 0.025 | 0.806 ± 0.032 | 0.764 ± 0.013 | 0.772 ± 0.011 | 0.741 ± 0.0064 | 0.726 ± 0.016 | 0.688 ± 0.021
1 µM, coculture fibroblast: Hs343T | 0.853 ± 0.018 | 0.907 ± 0.012 | 0.845 ± 0.032 | 0.813 ± 0.039 | 0.731 ± 0.031 | 0.717 ± 0.021 | 0.679 ± 0.02 | 0.653 ± 0.0073 | 0.6408 ± 0.00081
1 µM, coculture fibroblast: WS1 | 0.83776 ± 0.00018 | 0.797 ± 0.016 | 0.768 ± 0.027 | 0.703 ± 0.039 | 0.655 ± 0.044 | 0.634 ± 0.059 | 0.613 ± 0.061 | 0.6 ± 0.073 | 0.599 ± 0.08
